Values quoted from earlier work as cited in US8058034B2, “Mutated D-aminotransferase and method for producing optically active glutamic acid derivatives using the same” (Ajinomoto Co., Inc., priority 2002, dated 2011).
Like-named read-outs stand apart in the source and are kept apart here. At least one compound was matched to its structure with a doubt left.

Conditions: cited from earlier work

## N[C@@H](C[C@](O)(Cc1c[nH]c2ccccc12)C(=O)O)C(=O)O [2S, 4R, (2S,4R)-monatin]
  Sweetness (vs. sucrose): 300 times

## NC(CC(O)(Cc1c[nH]c2ccccc12)C(=O)O)C(=O)O [2S, 4S, (2S,4S)-monatin]
  Sweetness (vs. sucrose): 50 times

## N[C@H](C[C@@](O)(Cc1c[nH]c2ccccc12)C(=O)O)C(=O)O [2R, 4S, (2R,4S)-monatin]
  Sweetness (vs. sucrose): 1300 times

## N[C@H](CC(O)(Cc1c[nH]c2ccccc12)C(=O)O)C(=O)O (stereo partly drawn) [2R, 4R, (2R,4R)-monatin]
  Sweetness (vs. sucrose): 2700 times
Listed as (2R,4R)-monatin
  Sweetness (vs. sucrose): 2,700 times
